Values quoted from earlier work as cited in patent publication US9937154B2, “Use of telmisartan to prevent and treat graft versus host disease and other alloimmune and autoimmune diseases” (Hackensack University Medical Center, priority 2015, dated 2018).
At least one structure is not confirmed: it was looked up by name or label, or the drawing left a doubt.

Tested on: GVHD mouse model
Details: cited from earlier work

## CN(CCOc1ccc(CC2SC(=O)NC2=O)cc1)c1ccccn1 (stereo not shown) [rosiglitazone]
  GVHD inflammation: suppress GVHD inflammation
